Measured values as given in PubChem BioAssay AID2685 (National Center for Advancing Translational Sciences (NCATS), 2010).
This is one part of the list. Further columns of the screen follow, without active or inactive calls. Compounds called inactive in the main read-out are mostly missing here. Words in brackets tell the shape of the fitted curve; partial curves, single points and poor fits give uncertain potencies.

Assay: qHTS Assay for Lipid Storage Modulators in Drosophila S3 Cells;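 as to cell number change: cells counted by Cell Tracker Red CMTPX staining in the red channel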
Details: BODIPY lipid droplet fluorescence, 18-24 h; for cell number change: measured here: cell count max response, cells fed with added oleic acid
How it was run: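 Drosophila S3 cells got compounds at several concentrations plus oleic acid (400 uM solution). Laser-scanning cytometry with 488 nm excitation read lipid droplets at 500-530 nm and cells at 575-640 nm. Percent activity was relative to 20 uM Triacsin C.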

[1] = measured here: lipid fluorescence (Fed channel) AC50, cells fed with added oleic acid
[2] = measured here: cell number channel AC50, cells fed with added oleic acid

| SMILES | cell number change | AC50 [1] | AC50 [2] |
| --- | --- | --- | --- |
| COc1ccc(CC(=O)Nc2ccc3c(c2)CCC3)cc1OC | 1.35% | 2.59 µM [rising, partial curve] |  |
| COc1ccc(C(C(=O)NC2CCCCC2)N(C(=O)CCl)c2cccc(Cl)c2)cc1 (stereo unspecified) | -37.5% | 4.61 µM [rising, single point] | 9.2 µM [falling, partial curve, poor fit] |
| Cc1cccc(C(CC(=O)NCc2ccco2)c2ccccc2)c1O (stereo unspecified) | 30.6% |  |  |
| O=C(Nc1cccc(O)c1)c1cccc(C(=O)Nc2cccc(O)c2)c1 | -33.2% | 29.1 µM [falling, single point] | 9.2 µM [falling, single point] |
| CC(=O)/C(C#N)=C1\NC(=O)C(Cc2ccc(F)cc2)S1 (stereo unspecified) | -3.97% |  |  |
| Clc1ccc(-n2c(SC/C=C/c3ccccc3)nnc2-c2cccnc2)cc1 | 3.05% | 0.517 µM [rising, single point] | 1.03 µM [rising, partial curve] |
| N#Cc1c(-c2ccc(F)cc2)noc1N | 78.6% | 4.11 µM [rising, single point] | 18.4 µM [rising, partial curve] |
| COCc1nnc(NC(=O)c2ccc(Cl)cc2[N+](=O)[O-])s1 | -16.7% |  | 0.092 µM [falling, partial curve, poor fit] |
| C=CCn1c(=O)c(C(=O)Nc2ncccc2O)c(O)c2ccccc21 | -1.4% |  |  |
| Nn1c(SCC(=O)Nc2ccccc2Br)nnc1-c1ccco1 | 26.6% |  |  |
| O=C(NC(=S)Nc1ccccc1[N+](=O)[O-])c1ccccc1 | 7.04% | 2.06 µM [rising, partial curve] |  |
| O=S(=O)(c1cccc2nonc12)N1CCN(c2ccc(F)cc2)CC1 | -0.591% | 0.517 µM [falling, partial curve, poor fit] |  |
| Cc1ccc(-n2c(O)c(C=Nc3ccccc3-c3n[nH]c(=S)[nH]c3=O)c3ccccc3c2=O)c(C)c1 | 14.3% | 4.11 µM [rising, single point] |  |
| COc1ccc(Br)cc1/C=N/N1CCN(Cc2ccccc2Cl)CC1 | 27.7% |  |  |
| CC(C)n1c(C(O)c2ccc3c(c2)OCO3)nc2ccccc21 (stereo unspecified) | 35.1% |  | 8.2 µM [rising, partial curve, poor fit] |
| CC(C)(C)CC(C)(C)NC(=O)Nc1cccc([N+](=O)[O-])c1 | -66% | 29.1 µM [falling, single point] | 20.6 µM [falling, single point] |
| Cc1nn(C)c(C(=O)Nc2ccc(Br)cc2F)c1Br | 7.96% |  |  |
| CC(C)CCNC(=O)Cn1c(=O)oc2cc(S(=O)(=O)N3CCc4ccccc43)ccc21 | 71.8% | 29.1 µM [rising, single point] | 23.1 µM [rising, single point] |
| COC(=O)C1=CN(C2CC2)C=C(C(=O)OC)C1c1ccc(C(F)(F)F)cc1 | -16.5% |  | 0.731 µM [falling, full curve, poor fit] |

Three of the compounds above, with bars between the fields.
SMILES | cell number change | AC50 [1] | AC50 [2]
CC(=O)/C(C#N)=C1\NC(=O)C(Cc2ccc(F)cc2)S1 (stereo unspecified) | -3.97% |  | 
COCc1nnc(NC(=O)c2ccc(Cl)cc2[N+](=O)[O-])s1 | -16.7% |  | 0.092 µM [falling, partial curve, poor fit]
CC(C)n1c(C(O)c2ccc3c(c2)OCO3)nc2ccccc21 (stereo unspecified) | 35.1% |  | 8.2 µM [rising, partial curve, poor fit]

More results follow.

| SMILES | cell number change | AC50 [1] | AC50 [2] |
| --- | --- | --- | --- |
| O=C(O)C1=NN(c2ccccc2)C(=O)CC1 | -0.525% | 3.26 µM [rising, full curve] |  |
| O=C(O)c1cc(=O)cc(C(=O)O)[nH]1 | -164% |  | 29.1 µM [falling, partial curve] |
| N#C/C(=C\c1cccc([N+](=O)[O-])c1)c1nnc2n1CCCCC2 |  | 4.61 µM [falling, full curve] |  |
| Fc1cnc(Cl)nc1N1CCN(c2ccccc2)CC1 | 17.5% | 0.13 µM [rising, full curve, poor fit] |  |
| CC(C)NC(=O)/C(=C/c1ccco1)c1ccccc1 | 48.5% | 29.1 µM [rising, single point] | 7.31 µM [rising, full curve, poor fit] |
| Cc1cc2c(s1)c1c(n2C)C(=O)N(Cc2ccccc2F)C1 | -1.42% |  |  |
| O=C(N/N=C/c1ccc[nH]1)c1cc2ccccc2cc1O | 51.4% | 29.1 µM [rising, single point] | 29.1 µM [rising, single point] |
| CC1(C)Cc2cccc(OCC(=O)N3CCN(S(=O)(=O)c4ccccc4F)CC3)c2O1 | -0.673% | 7.31 µM [rising, single point] |  |
| CCc1ccc(N2CC(C(=O)Nc3cccc(C(=O)NC4CC4)c3)CC2=O)cc1 (stereo unspecified) | 11.1% | 0.116 µM [rising, full curve, poor fit] |  |
| COc1ccc(Nc2ncnc3c2oc2ccccc23)cc1 | -20.3% | 11.6 µM [rising, partial curve, poor fit] |  |
| Cc1ccc(Cc2c(C)c(C#N)c3[nH]c4ccccc4n3c2=O)cc1 | -54.5% | 29.1 µM [falling, partial curve, poor fit] | 1.3 µM [falling, partial curve, poor fit] |
| COc1ccc(NC(=O)C(=O)NNC(=O)COc2ccc(OC)cc2)cc1 | 12.5% | 29.1 µM [rising, single point] |  |
| CC(C)c1ccc(C(C(=O)NC2CCCC2)N(C(=O)c2csnn2)C2CC2)cc1 (stereo unspecified) | -7.69% |  |  |
| COc1cc(/C=N/NC2=NS(=O)(=O)c3ccccc32)ccc1OC(C)=O | 7.56% | 0.00461 µM [rising, full curve, poor fit] |  |
| Cc1nn(-c2ccccc2)c(Cl)c1C(=O)N1CCN(C)CC1 | -78.5% |  | 32.6 µM [falling, partial curve, poor fit] |
| Cc1ccc(S(=O)(=O)/N=C2\C(=O)c3ccccc3C([O-])=C2n2cc[n+](CCC(C)C)c2)cc1 | -23.2% | 14.6 µM [rising, partial curve] |  |
| COC(=O)CCCc1nc2ccccc2s1 | 35% |  | 25.9 µM [rising, single point] |
| CC(=O)c1ccc(NS(=O)(=O)c2ccc(N/C=C/C(=O)c3ccc(F)cc3)cc2)cc1 | 16.8% | 1.3 µM [rising, partial curve, poor fit] |  |
| CCOCc1nnc(NC(=O)c2c(-c3ccccc3)noc2C)s1 | 1.21% | 2.06 µM [falling, full curve] |  |
